# Structures can show the parent of a compound that is named as a salt.
# Assay type: physicochemical
# Settings: Method B; aerosol recovered from the mass coated (mg)
row,SMILES,Yield
1,CN1CCc2cccc3c2[C@H]1Cc1ccc(O)c(O)c1-3 [Apomorphine HCl],0.60
2,CCOC(=O)[C@H](CCc1ccccc1)N[C@@H](C)C(=O)N1CCC[C@H]1C(=O)O [Enalapril maleate],0.29
3,Cl.Cl.OCCN1CCN(CCCN2c3ccccc3Sc3ccc(C(F)(F)F)cc32)CC1 [Fluphenazine 2HCl],0.33
4,Cc1cccc(C)c1OCC(C)N (centres unmarked) [Mexiletine HCl],0.44
5,CN1CCN(CCCN2c3ccccc3Sc3ccc(C(F)(F)F)cc32)CC1.Cl.Cl [Trifluoperazine 2HCl],0.52
